Publication PMC11489326, “Characterization of lignin-degrading enzyme PmdC, which catalyzes a key step in the synthesis of polymer precursor 2-pyrone-4,6-dicarboxylic acid” (The Journal of Biological Chemistry, 2024)
These are yes or no findings as the source states them, for the method shown. Some binding calls cover weakened binding; strength is not graded here.

By UniProt entry, the sequences of proteins in these tests, tags left out.
UniProt Q8RNX9: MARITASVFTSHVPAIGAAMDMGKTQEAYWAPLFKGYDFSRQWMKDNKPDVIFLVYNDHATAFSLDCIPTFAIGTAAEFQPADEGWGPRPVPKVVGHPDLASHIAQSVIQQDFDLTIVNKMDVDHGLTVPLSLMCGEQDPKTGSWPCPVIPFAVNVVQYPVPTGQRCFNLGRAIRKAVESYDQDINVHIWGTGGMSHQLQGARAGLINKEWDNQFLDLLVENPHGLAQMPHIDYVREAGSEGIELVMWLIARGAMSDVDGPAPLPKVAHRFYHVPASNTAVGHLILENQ

Target: T1, PmdA, subunit of protocatechuate 4,5-dioxygenase PmdAB from Comamonas testosteroni (Comamonas testosteroni) (UniProt Q8RNY0)
T1 sequence: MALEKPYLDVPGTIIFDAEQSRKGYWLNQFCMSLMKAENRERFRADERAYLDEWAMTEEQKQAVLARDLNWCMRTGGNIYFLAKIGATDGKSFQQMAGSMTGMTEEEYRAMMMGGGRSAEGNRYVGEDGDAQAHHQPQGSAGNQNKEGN
Experiment: co-purification on Ni-NTA; His6-PmdA and PmdB co-expressed in E. coli; lysate loaded on Ni-NTA agarose in an anaerobic chamber, washed with 20, 50 and 75 mM imidazole, eluted with 500 mM imidazole; 25 mM Hepes pH 7.5, 250 mM NaCl, 1 mM DTT; SDS-PAGE

## PmdB, subunit of protocatechuate 4,5-dioxygenase PmdAB from Comamonas testosteroni (from UniProt Q8RNX9 1-289) (enzyme)
  binding: binds
